The values are deposited in ChEMBL (CHEMBL3988442, “University of Dundee, Small-Polar-MMV Screening Library” (2021)).

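Whole-cell growth test on Mycobacterium tuberculosis, read after 4 days in a medium based on cholesterol and the lipid DPPC; the read-out is not stated. Tested at 500 µM. The record gives no direction; compounds that gave an IC50 in retests scored well above the rest, so higher reads as more growth inhibition. Of about 18,000 compounds tested this way, about 900 (5%) reached 50% or more in at least one test.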

Each number is a percent effect as filed.
How 0% and 100% were set is not recorded. Most values in the screen are low, and negative values occur.
The compounds are a random part of those screened.

{"compound": "Cc1cc(F)ccc1NC(=O)NCCCn1cnnc1", "percent effect": -3.393}
{"compound": "CCO[C@H]1COC[C@@H]1NC(=O)c1occc1C", "percent effect": 0.9744}
{"compound": "COc1cccc2c1CCNCC2", "percent effect": 52.2}
{"compound": "CN1C[C@@H]2CN(C(=O)c3cc(C4CC4)on3)C[C@@H]2C1", "percent effect": 1.65}
{"compound": "Cc1cc(CN)on1", "percent effect": 108}
{"compound": "Cc1ccsc1CN(C)C(=O)Cn1cccnc1=O", "percent effect": 9.282}
{"compound": "CCCN1CCC(NCC(O)c2ccco2)CC1", "stereo": "stereo not drawn", "percent effect": -6.133}
{"compound": "N#CC1(C(=O)Nc2cc(C(N)=O)ccc2Cl)CCCC1", "percent effect": 0.9982}
{"compound": "CNC(=O)C1CCCCN1Cc1cc(OC)ccn1", "stereo": "stereo not drawn", "percent effect": -8.596}
{"compound": "CC(C)(C)c1nnc(CN)s1", "percent effect": 13.98}
{"compound": "COCCCn1ccc(Nc2ncccc2C#N)n1", "percent effect": 6.239}
{"compound": "C1CCC(NC2CCNCC2)C1", "percent effect": 1.735}
{"compound": "CCC(CNC(=O)c1cnccn1)N1CCCC1", "stereo": "stereo not drawn", "percent effect": 6.078}
{"compound": "CC(Sc1nnc(NCC(F)(F)F)s1)C(N)=O", "stereo": "stereo not drawn", "percent effect": -8.578}
{"compound": "CC(C)N(C)C(=O)CC1CCNCC1", "percent effect": -5.377}
{"compound": "CNS(=O)(=O)c1cccc2nonc12", "percent effect": 11.61}
{"compound": "C=C(C)CN1CCN(C(=O)N(C)C)CC1", "percent effect": -10.28}
{"compound": "NS(=O)(=O)c1cccc(Cl)c1Br", "percent effect": -4.491}
{"compound": "O=C(C1CCOCC1)N1CCCC(c2ncc[nH]2)C1", "stereo": "stereo not drawn", "percent effect": 3.628}
{"compound": "CNCC(=O)Nc1cc(Cl)ccc1OC", "percent effect": 12.53}
{"compound": "O=S(=O)(c1ccc(Br)cc1)N1CCOCC1", "percent effect": -12.51}
{"compound": "Nc1nc(NCCc2c[nH]cn2)cc(C2CC(N)C2)n1", "stereo": "stereo not drawn", "percent effect": 16.5}
{"compound": "c1ccc(Oc2cccc(NCc3csnn3)c2)nc1", "percent effect": -26.24}
{"compound": "O=C(CN1CCCC1c1ccsc1)N1CCOCC1", "stereo": "stereo not drawn", "percent effect": 7.276}
{"compound": "O[C@H]1COC[C@@H]1N1CCCN(CCn2cncn2)CC1", "percent effect": 2.141}
{"compound": "Cn1cc(C(O)C(=O)OCc2cccc(F)c2)cn1", "stereo": "stereo not drawn", "percent effect": -1.904}
{"compound": "CC(=O)NC(C(=O)Nc1cnn(C)c1)C1CCCC1", "stereo": "stereo not drawn", "percent effect": -15.9}
{"compound": "O=S1(=O)CCCC1CNCc1cccc2cccnc12", "stereo": "stereo not drawn", "percent effect": 9.509}
{"compound": "N#Cc1ccc(S(=O)(=O)N2CCC[C@@H](N)C2)cc1Cl", "percent effect": 27.62}
{"compound": "NCc1cccc(S(=O)(=O)NCC(F)(F)F)c1", "percent effect": 2.493}
{"compound": "CN1CCC(NC(=O)c2ccc(Br)o2)CC1", "percent effect": 18.9}
{"compound": "CCc1ccc2c(c1)[C@@H](N)CCO2", "percent effect": 26.96}
{"compound": "COc1ccc(CCNC(=O)CSc2nncs2)cc1", "percent effect": 36.89}
{"compound": "Cc1nnc(SCC(N)=O)[nH]1", "percent effect": -7.05}
{"compound": "CSc1ccc(C)c(C(=O)N2CCCC(C(N)=O)C2)c1", "stereo": "stereo not drawn", "percent effect": 7.497}
{"compound": "C1CC(CNC2CC2)CO1", "stereo": "stereo not drawn", "percent effect": 1.753}
{"compound": "Brc1cnn(C2CCNCC2)c1", "percent effect": 13.25}
{"compound": "COc1ccc(C(C)CC(=O)N2CC[C@H](O)C2)cc1", "stereo": "stereo partly drawn", "percent effect": -3.299}
{"compound": "CNC(=O)[C@@H]1C[C@H](N)CN1S(=O)(=O)N1CCCCC1", "percent effect": -3.085}
{"compound": "CNCc1nnc2n1CCC2", "percent effect": -12.92}
{"compound": "CCS(=O)(=O)N(C)c1ccc(C(N)=O)cc1", "percent effect": 6.24}
{"compound": "CN(C)c1ccc(CNC(=O)c2ccc(O)nc2)cn1", "percent effect": 1.183}
{"compound": "CC(C)C(CN)N1CCN(C)CC1", "stereo": "stereo not drawn", "percent effect": 3.308}
{"compound": "CN(C)[C@@H]1CN(C(=O)c2ccccc2Br)C[C@H]1CO", "percent effect": -28.34}
{"compound": "CCc1nnc2n1CC(NC(=O)Cc1ccsc1)CC2", "stereo": "stereo not drawn", "percent effect": -4.36}
{"compound": "CC(N)c1cc(F)ccc1N(C)C", "stereo": "stereo not drawn", "percent effect": -6.805}
{"compound": "CCS(=O)(=O)c1cc(Cl)cc(CO)c1", "percent effect": 2.41}
{"compound": "CCN1CCN(C(=O)C2CCCOC2)c2ccccc21", "stereo": "stereo not drawn", "percent effect": -3.203}
{"compound": "O=c1cnc2cc(Cl)c(Cl)cc2n1CCO", "percent effect": 0.1228}
{"compound": "CC(c1cccs1)N(C)C(=O)c1ccc(C(N)=O)cc1", "stereo": "stereo not drawn", "percent effect": 33.28}
{"compound": "COc1ccc(C2CCCN2CC(N)=O)cc1", "stereo": "stereo not drawn", "percent effect": -6.05}
{"compound": "COc1ccnc2c1CCCC2N", "stereo": "stereo not drawn", "percent effect": 7.256}

Some entries from above, unchanged:

{"compound": "COCCCn1ccc(Nc2ncccc2C#N)n1", "percent effect": 6.239}
{"compound": "N#Cc1ccc(S(=O)(=O)N2CCC[C@@H](N)C2)cc1Cl", "percent effect": 27.62}
{"compound": "CCS(=O)(=O)c1cc(Cl)cc(CO)c1", "percent effect": 2.41}
{"compound": "O=c1cnc2cc(Cl)c(Cl)cc2n1CCO", "percent effect": 0.1228}